Among all 300,000 compounds or so, about 3,700 (1.2%) were called active. Inconclusive results, whose numbers are uncertain, are shown with a selection of clear calls. The call rests on the fitted dose curve; tested in HEK293 cells. Potencies beside an inconclusive call are fits to weak or partial responses and may not hold up.
assay: qHTS for Inhibitors of binding or entry into cells for Lassa Virus; details: Lassa virus pseudotype entry inhibition, cell reporter; series mostly up to 37.9 µM; further: nearly all actives have a fitted effect of over 50% in size
Potency means the concentration at half of the fitted maximal effect.

Row | SMILES | Potency
1 | O=C(NNC(=O)c1ccccc1F)c1ccc(-n2cncn2)c([N+](=O)[O-])c1 | inactive
2 | CN(C)S(=O)(=O)c1cccc(NC(=O)C2CCN(S(=O)(=O)c3cccs3)CC2)c1 | inconclusive: 31.6 µM [inhibitor, partial curve, poor fit]
3 | CN(c1ccccc1)S(=O)(=O)c1ccc(NC(=O)c2cccs2)cc1 | inconclusive: 3.55 µM [inhibitor, single point]
4 | CC(=O)c1ccc(NC(=O)CCc2c(C)nc3c(c(C)nn3-c3ccc(C)cc3)c2C)cc1 | inconclusive: 35.5 µM [activator, single point]
5 | O=C(O)C1CCN(c2nc(-c3ccccc3)c3cc(Br)ccc3n2)CC1 | inconclusive: 2.51 µM [activator, full curve]
6 | Cc1ccc(C)c(Cn2nnc3c(=O)[nH]c(C4CCCN(C(=O)c5ccco5)C4)nc32)c1 (configuration not stated) | inconclusive: 35.5 µM [inhibitor, single point]
7 | Cc1ccc(CN(Cc2ccco2)C(=S)Nc2ccccc2C)cc1 | inconclusive: 1.12 µM [activator, full curve, poor fit]
8 | S=C(Nc1cccc2ccccc12)NC1CCCCC1 | inconclusive: 11.2 µM [activator, partial curve, poor fit]
9 | O=C(NC1CC1)c1cccc(Nc2ccc(-c3ccc4c(c3)OCCO4)nn2)c1 | inconclusive: 14.6 µM [inhibitor, single point]
10 | O=[N+]([O-])c1cc(/C=N/NC(=S)Nc2ccccc2Cl)ccc1Cl | inconclusive: 11.2 µM [inhibitor, partial curve, poor fit]
11 | COc1ccc(C)cc1NS(=O)(=O)c1cc(C)ccc1C | inactive
12 | CN1CCN(C2=Cc3ccccc3Sc3cc(F)ccc32)CC1 | inactive
13 | CCN(CC)CCSc1nnc2c3cc(F)ccc3n(Cc3ccccc3)c2n1 | inconclusive: 35.5 µM [inhibitor, single point]
14 | Cc1cccc(NC(=S)N(Cc2cccs2)Cc2cc3cc(C)cc(C)c3[nH]c2=O)c1 | inconclusive: 6.31 µM [inhibitor, single point]
15 | COC(=O)N/N=C/c1sc(N2CCCCC2)nc1-c1cccs1 | inactive
16 | CCOC(=O)C1CCN(Cc2ccc(O)c(OC)c2)CC1 | inactive
17 | O=C(CCS(=O)(=O)c1nc(-c2cccs2)cc(C(F)(F)F)n1)Nc1ccc(OC(F)(F)F)cc1 | inconclusive: 3.98 µM [inhibitor, single point]
18 | Cc1nc(S/C(=C/c2ccc(-c3ccc(Cl)cc3)o2)C(=O)O)n[nH]1 | inconclusive: 10 µM [inhibitor, partial curve, poor fit]
19 | COC(=O)c1ccccc1NC(=O)C1=CC(c2ccc(C)cc2)=NS(=O)(=O)N1C | inconclusive: 3.55 µM [inhibitor, full curve]
20 | O=S(=O)(NCc1cccc(C(F)(F)F)c1)NCc1ccccc1F | inactive
21 | O=C(c1cc([N+](=O)[O-])ccc1N1CCCCC1)N1CCc2ccccc21 | inconclusive: 0.562 µM [inhibitor, full curve, poor fit]
22 | CS(=O)(=O)c1ccc(Cl)c(NC(=O)CSC(=S)N2CCCC2)c1 | inconclusive: 2.51 µM [inhibitor, partial curve]
23 | Cn1c(SCc2ccccc2)nnc1-c1ccco1 | inconclusive: 35.5 µM [activator, single point]

Row | SMILES | Potency
24 | O=C(Cn1cc([N+](=O)[O-])ccc1=O)NCC1COc2ccccc2O1 (configuration not stated) | inactive
25 | CCOC(=O)C1(Cc2ccc(Cl)cc2)CCN(C2CCC2)CC1 | inconclusive: 10 µM [inhibitor, partial curve, poor fit]
26 | O=C(Nc1cccc(S(=O)(=O)N2CCCC2)c1)c1ccc2ccccc2n1 | inconclusive: 35.5 µM [inhibitor, single point]
27 | Cc1cccc(-n2c(=S)[nH]c3sc4c(c3c2=O)CCc2ccccc2-4)c1 | inconclusive: 0.316 µM [inhibitor, full curve, poor fit]
28 | COc1ccc(CCNC(=O)c2ccc3c(c2)N(Cc2c(F)cccc2Cl)C(=O)CS3)cc1OC | inconclusive: 35.5 µM [inhibitor, partial curve, poor fit]
29 | COc1cccc(Cn2cc(/C=N/NC(=O)c3cc(O)cc(O)c3)c3ccccc32)c1 | inconclusive: 11.2 µM [inhibitor, partial curve, poor fit]
30 | CCCCC(=O)OCC(=O)c1[nH]c(C)c(C(=O)OCC)c1C | inactive
31 | NC(Cc1cc(O)c(O)cc1O)C(=O)O (configuration not stated) | inconclusive: 35.3 µM [inhibitor, single point]
32 | O=C(Oc1ccc(N(Cc2cccs2)C2=NS(=O)(=O)c3ccccc32)cc1)c1ccco1 | inconclusive: 25.1 µM [inhibitor, single point]
33 | CN(C)C(=O)N1CCC(C(=O)N2CCCC(C(=O)c3cccc4ccccc34)C2)CC1 (configuration not stated) | inconclusive: 35.5 µM [inhibitor, single point]
34 | O=C1CC[C@@H](CN(Cc2ccccc2)Cc2cn[nH]c2-c2cc3ccccc3o2)N1 | inconclusive: 35.5 µM [inhibitor, single point]
35 | O=C1Nc2ccc(S(=O)(=O)N3CCOCC3)c3cccc1c23 | inconclusive: 0.0046 µM [activator, full curve, poor fit]
36 | N#Cc1c(-c2ccccc2)c(-c2ccccc2)nn(CC(=O)NNC(=O)Nc2ccc(Cl)c(Cl)c2)c1=O | inactive
37 | CC(=O)N1CCN(C(=S)NC(=O)c2c(-c3ccccc3Cl)noc2C)CC1 | inactive
38 | O=C(Cc1ccccc1)N(Cc1cccnc1)c1nc2c(F)cc(F)cc2s1 | active: 12.6 µM
39 | COc1ccc(-c2cc(C)no2)cc1S(=O)(=O)N1CCOc2ccccc21 | inactive
40 | CCCn1c(NCc2cc(C)ccc2O)nc2ccccc21 | inconclusive: 32.6 µM [inhibitor, single point]
41 | N#Cc1c(N)n(CCNC(=O)c2ccccc2)c2nc3ccccc3nc12 | inactive
42 | COc1cccc(NS(=O)(=O)c2ccc(NC(C)=O)cc2)c1 | inconclusive: 14.6 µM [inhibitor, partial curve, poor fit]
43 | COc1ccc(CNC(=O)/C(C#N)=C/c2cccc(OC)c2OC)cc1 | active: 3.55 µM
44 | O=C(O)CCCC(=O)Nc1cccc([N+](=O)[O-])c1 | inconclusive: 6.31 µM [inhibitor, single point]
45 | Cc1cc(CN(C)C(=O)c2ccc3nc(Cc4ccccc4F)oc3c2)on1 | inconclusive: 22.4 µM [inhibitor, single point]
46 | CCOc1cc(NC(=O)C2CCCCC2)c(OCC)cc1NC(=O)c1ccccn1 | inconclusive: 10 µM [inhibitor, partial curve, poor fit]

Exported with tabs: part of the list above
Row	SMILES	Potency
7	Cc1ccc(CN(Cc2ccco2)C(=S)Nc2ccccc2C)cc1	inconclusive: 1.12 µM [activator, full curve, poor fit]
9	O=C(NC1CC1)c1cccc(Nc2ccc(-c3ccc4c(c3)OCCO4)nn2)c1	inconclusive: 14.6 µM [inhibitor, single point]

(further entries)

Row | SMILES | Potency
47 | CCc1ccc(NC(=O)NC2CCCCCCC2)cc1 | inconclusive: 31.6 µM [inhibitor, single point]
48 | O=c1oc2ccccc2n1CSC1=NCCS1 | inconclusive: 35.5 µM [inhibitor, partial curve, poor fit]
49 | CC1CC(C)(C)NC(=S)N1CCCC(=O)N1CCN(c2ccccc2F)CC1 (configuration not stated) | inconclusive: 35.5 µM [inhibitor, single point]
50 | Cc1ccc(OCCSc2nc(NC(C)C)nc(NC(C)C)n2)cc1 | inconclusive: 14.6 µM [inhibitor, partial curve, poor fit]
51 | CCOC(=O)Cc1csc(NC(=O)c2c(-c3c(Cl)cccc3Cl)noc2C)n1 | inconclusive: 18.3 µM [inhibitor, single point]
52 | CCN(CC)S(=O)(=O)c1ccc(N2CCN(c3ccccc3OC)CC2)c(N)c1 | inconclusive: 15.8 µM [inhibitor, single point]
53 | O=C(Nc1ccc(S(=O)(=O)N2CCc3ccccc32)cc1)c1ccc2c(c1)OCO2 | inactive
54 | COc1ccc(CNC(=O)c2ccc(N3CCCC3)c(NC(=O)NCc3ccc(C)cc3)c2)cc1 | inconclusive: 12.6 µM [inhibitor, partial curve, poor fit]
55 | O=S(=O)(c1ccc(Cl)cc1)N1CCC(c2nc3ccccc3[nH]2)CC1 | inactive
56 | Cc1cccc(CSc2nnc([C@@H]3CCCN3C(=O)OC(C)(C)C)o2)c1 | inconclusive: 10 µM [inhibitor, partial curve]
57 | CC(C)(C)c1ccc(C(=O)NCC(c2cccs2)S(=O)(=O)c2ccccc2)cc1 (configuration not stated) | inconclusive: 35.5 µM [inhibitor, single point]
58 | CCC(C)N1C(=O)S/C(=C/c2ccc(Sc3nc4ccccc4[nH]3)o2)C1=O (configuration not stated) | inconclusive: 23.1 µM [inhibitor, single point]
59 | CCN(CC)c1ccc(S(=O)(=O)N2CCOCC2)cc1NC(=O)CN1C(=O)NC2(CCC(C)CC2)C1=O (configuration not stated) | inactive
60 | Cc1ccc(C)c(OCCCCn2ccnc2)c1 | inactive
61 | O=C(COc1ccc([N+](=O)[O-])cc1)Nc1ccc(NC(=O)c2ccccc2)cc1 | inactive
62 | O=C(COc1ccc(Cl)cc1)NNC(=O)c1ccccc1C(=O)O | inactive
63 | NC(=O)C1CCN(c2c([N+](=O)[O-])cc(C(F)(F)F)cc2[N+](=O)[O-])CC1 | inconclusive: 15.8 µM [inhibitor, single point]
64 | COc1ccc(OC)c(S(=O)(=O)NCC(=O)NC2CCCc3ccccc32)c1 (configuration not stated) | inactive
65 | CCOC(=O)c1nn(-c2ccccc2)c(=O)c(C#N)c1C | inconclusive: 0.231 µM [inhibitor, single point]
66 | COc1ccc(-c2nnn(Cc3ccccc3)n2)cc1 | inconclusive: 5.62 µM [activator, single point]
67 | CCC(C)NC(=O)CSc1nc2n[nH]c(C)c2c(=N)n1-c1ccc(OC)cc1 (configuration not stated) | inactive

Gathered by group: the compounds so far with a CF3 group (3)
Row | SMILES | Potency
17 | O=C(CCS(=O)(=O)c1nc(-c2cccs2)cc(C(F)(F)F)n1)Nc1ccc(OC(F)(F)F)cc1 | inconclusive: 3.98 µM [inhibitor, single point]
20 | O=S(=O)(NCc1cccc(C(F)(F)F)c1)NCc1ccccc1F | inactive
63 | NC(=O)C1CCN(c2c([N+](=O)[O-])cc(C(F)(F)F)cc2[N+](=O)[O-])CC1 | inconclusive: 15.8 µM [inhibitor, single point]
